Results are given in words; binding and its absence hold for the method and conditions named. Binding seen in cells or lysates may run through a third protein. Some results given as binding are weak or reduced against the parent protein; the word gives no strength.
What was measured:
[1] = molecular target: G protein estrogen receptor (human (endogenous in MDA-MB-231)) (UniProt Q99527); assay: co-IP; MDA-MB-231 cells cultured in normoxia or hypoxia (2% O2), lysed in RIPA buffer; 200 μg protein incubated 2 h with anti-c-fos or anti-GPER antibody and Protein A/G agarose; immunoblot of the immunocomplexes; nonspecific IgG as control
[2] = molecular target: c-fos (human (endogenous in MDA-MB-231)) (UniProt P01100); assay: as above

Chains of the proteins cited; added tags and fusions are not shown.
UniProt Q99527: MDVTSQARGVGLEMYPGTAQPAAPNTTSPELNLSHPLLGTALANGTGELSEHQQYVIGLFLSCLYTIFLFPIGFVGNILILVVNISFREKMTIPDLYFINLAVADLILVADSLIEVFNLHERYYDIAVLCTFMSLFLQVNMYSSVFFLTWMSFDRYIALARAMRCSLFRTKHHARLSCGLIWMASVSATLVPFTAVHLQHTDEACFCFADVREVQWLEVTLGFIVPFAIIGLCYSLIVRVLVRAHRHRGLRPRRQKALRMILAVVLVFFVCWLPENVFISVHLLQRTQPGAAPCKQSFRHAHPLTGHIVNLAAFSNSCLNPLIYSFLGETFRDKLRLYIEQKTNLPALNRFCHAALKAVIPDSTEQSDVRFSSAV
UniProt P01100: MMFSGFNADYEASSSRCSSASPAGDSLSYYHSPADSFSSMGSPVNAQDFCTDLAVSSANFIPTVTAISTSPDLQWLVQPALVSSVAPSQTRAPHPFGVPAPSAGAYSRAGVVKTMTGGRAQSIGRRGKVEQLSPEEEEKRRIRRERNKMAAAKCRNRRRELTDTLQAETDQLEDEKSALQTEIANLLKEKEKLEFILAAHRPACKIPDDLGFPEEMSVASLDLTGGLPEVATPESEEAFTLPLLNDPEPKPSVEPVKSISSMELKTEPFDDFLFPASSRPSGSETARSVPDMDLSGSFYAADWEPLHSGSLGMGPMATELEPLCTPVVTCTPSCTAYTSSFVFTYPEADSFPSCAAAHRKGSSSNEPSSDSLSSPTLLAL
UniProt Q16665: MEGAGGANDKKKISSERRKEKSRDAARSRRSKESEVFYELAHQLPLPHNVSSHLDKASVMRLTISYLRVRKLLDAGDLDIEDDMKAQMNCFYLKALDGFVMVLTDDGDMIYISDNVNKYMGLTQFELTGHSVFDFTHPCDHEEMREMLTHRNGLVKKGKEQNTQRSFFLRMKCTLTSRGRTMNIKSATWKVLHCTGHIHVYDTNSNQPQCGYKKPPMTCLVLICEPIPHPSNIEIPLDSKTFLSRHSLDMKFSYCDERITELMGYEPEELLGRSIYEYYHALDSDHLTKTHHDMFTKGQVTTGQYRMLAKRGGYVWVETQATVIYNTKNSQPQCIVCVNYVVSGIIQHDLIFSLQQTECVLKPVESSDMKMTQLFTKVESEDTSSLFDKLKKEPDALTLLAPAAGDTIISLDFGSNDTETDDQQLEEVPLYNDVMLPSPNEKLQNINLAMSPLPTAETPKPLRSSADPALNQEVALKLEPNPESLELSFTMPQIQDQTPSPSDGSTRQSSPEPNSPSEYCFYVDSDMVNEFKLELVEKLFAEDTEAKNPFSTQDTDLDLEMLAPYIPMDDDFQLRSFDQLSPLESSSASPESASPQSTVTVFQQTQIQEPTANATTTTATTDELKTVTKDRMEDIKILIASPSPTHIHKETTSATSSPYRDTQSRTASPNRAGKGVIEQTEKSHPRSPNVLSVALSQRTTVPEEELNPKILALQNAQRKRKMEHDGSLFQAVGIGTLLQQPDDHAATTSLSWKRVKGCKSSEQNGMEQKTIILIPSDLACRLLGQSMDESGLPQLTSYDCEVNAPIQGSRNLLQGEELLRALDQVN

Substance: hypoxia inducible factor-1α (from UniProt Q16665 1-826)
- binding [1]: binds
- binding [2]: binds
